Measurements from patent US12291514B1, “Ethyl 2-[9-(2-hydroxypyridin-3-yl)-3,6-diphenyl-1,8-dioxo-3,4,9,10-tetrahydroacridine-10-yl]-acetate as an antimicrobial compound” (KING FAISAL UNIVERSITY, priority 2023, dated 2025).
At least one structure is not confirmed: it was looked up by name or label, or the drawing left a doubt.

How the values were obtained:
Format in all cases: cell-based
Escherichia coli = test: Antimicrobial screening by agar dilution, E. Coli
Experimental: (§1) The antibacterial properties of the synthesized compound, ethyl 2-[9-(2-hydroxypyridin-3-yl)-3,6-diphenyl-1,8-dioxo-3,4,9,10-tetrahydroacridine-10-yl]-acetate, were studied by the method of agar dilution. Test solutions of each compound was prepared in concentration of 1% using dimethylformamide as a solvent then they are diluted in physiological solution to obtain the final experimental dilutions 1:100, 1:200, 1:400, 1:800. The effect of these substances are compared with furacillin in a controllable study. The testing microbes used were gram positive bacteria Staphylococcus aureus, gram negative bacteria Pseudomonas aeruginosa and Escherichia coli and Candida albicans fungus. The experiments used for this survey were meat-pentonlu agar (EPA) for cultivation of bacteria and Saburo environment for the fungus. Each experiment used 1 mL of test solution on each plate […]. Two drops of emulsified with microbes feel were added. All experimental samples were taken from the agar after 10, 20, 40, 60 minutes in the environment on the basis of Patrk planted. The bacteria were cultivated at a temperature of 37° C. for 1 day and the mushroom was kept in a thermostat for 2 hours at a temperature of 28° C. Then results were checked.

Staphylococcus aureus = test: Antimicrobial screening by agar dilution, St. Aereus
Experimental: as §1

Pseudomonas aeruginosa = test: Antimicrobial screening by agar dilution, Ps. aeruginosa
Experimental: as §1

Candida albicans = test: Antimicrobial screening by agar dilution, Candida albicans
Experimental: as §1

[1] = dilution rate 1:100, exposure time 10 min
[2] = dilution rate 1:100, exposure time 20 min
[3] = dilution rate 1:100, exposure time 40 min
[4] = dilution rate 1:100, exposure time 60 min
[5] = dilution rate 1:200, exposure time 10 min
[6] = dilution rate 1:200, exposure time 20 min
[7] = dilution rate 1:200, exposure time 40 min
[8] = dilution rate 1:200, exposure time 60 min
[9] = dilution rate 1:400, exposure time 10 min
[10] = dilution rate 1:400, exposure time 20 min
[11] = dilution rate 1:400, exposure time 40 min
[12] = dilution rate 1:400, exposure time 60 min
[13] = dilution rate 1:800, exposure time 10 min
[14] = dilution rate 1:800, exposure time 20 min
[15] = dilution rate 1:800, exposure time 40 min
[16] = dilution rate 1:800, exposure time 60 min

NC(=O)N/N=C/c1ccc([N+](=O)[O-])o1 [Furacilin]
antimicrobial activity (+/−) (Escherichia coli; [1]): −
antimicrobial activity (+/−) (Escherichia coli; [2]): −
antimicrobial activity (+/−) (Escherichia coli; [3]): −
antimicrobial activity (+/−) (Escherichia coli; [4]): −
antimicrobial activity (+/−) (Escherichia coli; [5]): +
antimicrobial activity (+/−) (Escherichia coli; [6]): +
antimicrobial activity (+/−) (Escherichia coli; [7]): +
antimicrobial activity (+/−) (Escherichia coli; [8]): +
antimicrobial activity (+/−) (Escherichia coli; [9]): +
antimicrobial activity (+/−) (Escherichia coli; [10]): +
antimicrobial activity (+/−) (Escherichia coli; [11]): +
antimicrobial activity (+/−) (Escherichia coli; [12]): +
antimicrobial activity (+/−) (Escherichia coli; [13]): +
antimicrobial activity (+/−) (Escherichia coli; [14]): +
antimicrobial activity (+/−) (Escherichia coli; [15]): +
antimicrobial activity (+/−) (Escherichia coli; [16]): +
antimicrobial activity (+/−) (Staphylococcus aureus; [1]): −
antimicrobial activity (+/−) (Staphylococcus aureus; [2]): −
antimicrobial activity (+/−) (Staphylococcus aureus; [3]): −
antimicrobial activity (+/−) (Staphylococcus aureus; [4]): −
antimicrobial activity (+/−) (Staphylococcus aureus; [5]): +
antimicrobial activity (+/−) (Staphylococcus aureus; [6]): +
antimicrobial activity (+/−) (Staphylococcus aureus; [7]): +
antimicrobial activity (+/−) (Staphylococcus aureus; [8]): +
antimicrobial activity (+/−) (Staphylococcus aureus; [9]): +
antimicrobial activity (+/−) (Staphylococcus aureus; [10]): +
antimicrobial activity (+/−) (Staphylococcus aureus; [11]): +
antimicrobial activity (+/−) (Staphylococcus aureus; [12]): +
antimicrobial activity (+/−) (Staphylococcus aureus; [13]): +
antimicrobial activity (+/−) (Staphylococcus aureus; [14]): +
antimicrobial activity (+/−) (Staphylococcus aureus; [15]): +
antimicrobial activity (+/−) (Staphylococcus aureus; [16]): +
antimicrobial activity (+/−) (Pseudomonas aeruginosa; [1]): +
antimicrobial activity (+/−) (Pseudomonas aeruginosa; [2]): +
antimicrobial activity (+/−) (Pseudomonas aeruginosa; [3]): +
antimicrobial activity (+/−) (Pseudomonas aeruginosa; [4]): +
antimicrobial activity (+/−) (Pseudomonas aeruginosa; [5]): +
antimicrobial activity (+/−) (Pseudomonas aeruginosa; [6]): +
antimicrobial activity (+/−) (Pseudomonas aeruginosa; [7]): +
antimicrobial activity (+/−) (Pseudomonas aeruginosa; [8]): +
antimicrobial activity (+/−) (Pseudomonas aeruginosa; [9]): +
antimicrobial activity (+/−) (Pseudomonas aeruginosa; [10]): +
antimicrobial activity (+/−) (Pseudomonas aeruginosa; [11]): +
antimicrobial activity (+/−) (Pseudomonas aeruginosa; [12]): +
antimicrobial activity (+/−) (Pseudomonas aeruginosa; [13]): +
antimicrobial activity (+/−) (Pseudomonas aeruginosa; [14]): +
antimicrobial activity (+/−) (Pseudomonas aeruginosa; [15]): +
antimicrobial activity (+/−) (Pseudomonas aeruginosa; [16]): +
antimicrobial activity (+/−) (Candida albicans; [1]): −
antimicrobial activity (+/−) (Candida albicans; [2]): −
antimicrobial activity (+/−) (Candida albicans; [3]): +
antimicrobial activity (+/−) (Candida albicans; [4]): +
antimicrobial activity (+/−) (Candida albicans; [5]): +
antimicrobial activity (+/−) (Candida albicans; [6]): +
antimicrobial activity (+/−) (Candida albicans; [7]): +
antimicrobial activity (+/−) (Candida albicans; [8]): +
antimicrobial activity (+/−) (Candida albicans; [9]): +
antimicrobial activity (+/−) (Candida albicans; [10]): +
antimicrobial activity (+/−) (Candida albicans; [11]): +
antimicrobial activity (+/−) (Candida albicans; [12]): +
antimicrobial activity (+/−) (Candida albicans; [13]): +
antimicrobial activity (+/−) (Candida albicans; [14]): +
antimicrobial activity (+/−) (Candida albicans; [15]): +
antimicrobial activity (+/−) (Candida albicans; [16]): +
